From the supplement of paper PMC6078165
± gives the standard deviation of the averaged measurements. Values are relative to the signal before dosing, not to a vehicle control; the signal also falls without drug.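 Fibroblast labels denote human fibroblasts, mainly primary ones from uterus (C12385, HUF), lung (H6013), bone (Hs27A), adrenal (HADF) and skin (WS1), plus mammary HMF and breast cancer-associated Hs343T. Cancer cells are basal-like or mesenchymal-like triple-negative breast cancer lines. A hit is a response shift exceeding 3x replicate standard deviation. The tissue of the other fibroblasts is not given here.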

Test system: MDAMB231
Experiment: relative JC-1 red fluorescence (viability) vs pre-drug, coculture with fibroblast (fraction); higher = more viable cancer cells
Description: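 JC-1 labelled TNBC cells cocultured 1:1 (1,500 cells each) with CellTrace Violet stained primary or stromal fibroblasts in 384-well plates in FluoroBrite medium, treated with one of 42 anticancer drugs at 0.1, 1, 10 or 100 uM. JC-1 red fluorescence (mitochondrial integrity in cancer cells only) was read by plate reader every 8 h for 72 h. Values are normalised to each well's pre-drug value. The stock of one drug was tenfold lower, so its dose labels may be too high.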

CO[C@@]12[C@H](COC(N)=O)C3=C(C(=O)C(C)=C(N)C3=O)N1C[C@@H]1N[C@@H]12 [Mitomycin C]
relative JC-1 red fluorescence
Details	8 h	16 h	24 h	32 h	40 h	48 h	56 h	64 h	72 h
10 µM, coculture fibroblast: C12385	0.7735 ± 0.0042	0.752 ± 0.015	0.617 ± 0.03	0.632 ± 0.011	0.5799 ± 0.0048	0.555 ± 0.0098	0.515 ± 0.013	0.515 ± 0.023	0.509 ± 0.017
10 µM, coculture fibroblast: H6013	0.8862 ± 0.0059	0.8125 ± 0.0015	0.7827 ± 0.004	0.75482 ± 0.00028	0.708 ± 0.012	0.661 ± 0.0072	0.6398 ± 8.8e-05	0.6084 ± 0.0032	0.573 ± 0.009
10 µM, coculture fibroblast: H6019	0.749 ± 0.021	0.672 ± 0.05	0.594 ± 0.022	0.587 ± 0.014	0.52 ± 0.013	0.495 ± 0.0075	0.452 ± 0.014	0.435 ± 0.022	0.408 ± 0.016
10 µM, coculture fibroblast: H6076	0.912 ± 0.044	0.8 ± 0.057	0.726 ± 0.058	0.7 ± 0.068	0.659 ± 0.068	0.625 ± 0.064	0.602 ± 0.061	0.579 ± 0.053	0.565 ± 0.045
10 µM, coculture fibroblast: H6231	0.939 ± 0.031	0.842 ± 0.041	0.752 ± 0.046	0.716 ± 0.06	0.658 ± 0.064	0.624 ± 0.051	0.591 ± 0.064	0.574 ± 0.062	0.557 ± 0.07
10 µM, coculture fibroblast: HADF	0.88 ± 0.022	0.823 ± 0.033	0.784 ± 0.037	0.746 ± 0.041	0.7 ± 0.044	0.644 ± 0.029	0.634 ± 0.032	0.616 ± 0.028	0.57 ± 0.025
10 µM, coculture fibroblast: HCFa	0.903 ± 0.025	0.832 ± 0.04	0.802 ± 0.034	0.772 ± 0.051	0.705 ± 0.056	0.656 ± 0.053	0.624 ± 0.07	0.6 ± 0.081	0.555 ± 0.092
10 µM, coculture fibroblast: HCPF	0.9294 ± 0.0046	0.831 ± 0.0089	0.759 ± 0.076	0.74 ± 0.097	0.697 ± 0.12	0.671 ± 0.14	0.645 ± 0.15	0.62 ± 0.17	0.613 ± 0.19
10 µM, coculture fibroblast: HHSteC	0.9028 ± 0.0049	0.8563 ± 0.006	0.803 ± 0.017	0.777 ± 0.019	0.731 ± 0.027	0.703 ± 0.029	0.664 ± 0.024	0.642 ± 0.025	0.601 ± 0.028
10 µM, coculture fibroblast: HMF	0.927 ± 0.041	0.811 ± 0.032	0.734 ± 0.048	0.7 ± 0.04	0.65 ± 0.015	0.618 ± 0.024	0.574 ± 0.0078	0.546 ± 0.013	0.522 ± 0.0068
10 µM, coculture fibroblast: HPFa	0.93881 ± 0.00043	0.874 ± 0.0031	0.8064 ± 0.0025	0.7545 ± 0.0053	0.717 ± 0.0077	0.6777 ± 0.0021	0.6322 ± 0.0048	0.594 ± 0.0067	0.5519 ± 0.0021
10 µM, coculture fibroblast: HUF	0.834 ± 0.024	0.724 ± 0.012	0.703 ± 0.048	0.607 ± 0.0093	0.549 ± 0.02	0.539 ± 0.03	0.498 ± 0.043	0.497 ± 0.047	0.49 ± 0.059
10 µM, coculture fibroblast: Hs5	0.846 ± 0.11	0.864 ± 0.05	0.785 ± 0.031	0.737 ± 0.022	0.693 ± 0.0074	0.635 ± 0.0076	0.592 ± 0.013	0.56 ± 0.016	0.537 ± 0.01
10 µM, coculture fibroblast: Hs27A	0.8721 ± 0.0057	0.816 ± 0.017	0.766 ± 0.041	0.744 ± 0.028	0.7 ± 0.02	0.635 ± 0.022	0.657 ± 0.028	0.634 ± 0.025	0.595 ± 0.028
10 µM, coculture fibroblast: Hs343T	0.9523 ± 0.0095	0.828 ± 0.01	0.737 ± 0.011	0.6963 ± 0.0053	0.6341 ± 0.005	0.5824 ± 0.0054	0.526 ± 0.011	0.4923 ± 0.0047	0.4613 ± 0.0008
10 µM, coculture fibroblast: WS1	0.7658 ± 0.0027	0.707 ± 0.022	0.594 ± 0.018	0.5579 ± 0.0048	0.5209 ± 0.0011	0.49688 ± 0.00012	0.45447 ± 0.00037	0.4515 ± 0.00082	0.438 ± 0.013
100 µM, coculture fibroblast: C12385	0.715 ± 0.0099	0.653 ± 0.0093	0.717 ± 0.013	0.626 ± 0.021	0.483 ± 0.099	0.435 ± 0.16	0.433 ± 0.17	0.456 ± 0.18	0.459 ± 0.17
100 µM, coculture fibroblast: H6013	0.8576 ± 0.0073	0.8055 ± 0.0019	0.765 ± 0.0093	0.729 ± 0.021	0.667 ± 0.025	0.666 ± 0.027	0.626 ± 0.019	0.605 ± 0.027	0.57 ± 0.024
100 µM, coculture fibroblast: H6019	0.703 ± 0.018	0.648 ± 0.039	0.663 ± 0.086	0.598 ± 0.1	0.572 ± 0.11	0.576 ± 0.1	0.558 ± 0.096	0.572 ± 0.1	0.556 ± 0.09
100 µM, coculture fibroblast: H6076	0.849 ± 0.022	0.8125 ± 0.0011	0.8149 ± 0.0059	0.824 ± 0.02	0.826 ± 0.02	0.82 ± 0.033	0.849 ± 0.026	0.854 ± 0.037	0.875 ± 0.044
100 µM, coculture fibroblast: H6231	0.852 ± 0.011	0.8 ± 0.036	0.794 ± 0.069	0.796 ± 0.11	0.785 ± 0.14	0.778 ± 0.15	0.765 ± 0.15	0.769 ± 0.16	0.752 ± 0.15
100 µM, coculture fibroblast: HADF	0.8465 ± 0.0018	0.806 ± 0.014	0.76711 ± 0.00032	0.724 ± 0.0086	0.6762 ± 0.0036	0.651 ± 0.0075	0.607 ± 0.025	0.597 ± 0.023	0.542 ± 0.036
100 µM, coculture fibroblast: HCFa	0.8418 ± 0.0084	0.785 ± 0.0059	0.734 ± 0.021	0.6721 ± 0.00086	0.6244 ± 0.0024	0.6121 ± 0.0024	0.5888 ± 0.0048	0.577 ± 0.012	0.5449 ± 0.005
100 µM, coculture fibroblast: HCPF	0.856 ± 0.032	0.767 ± 0.019	0.7072 ± 0.0056	0.686 ± 0.007	0.633 ± 0.012	0.616 ± 0.015	0.6 ± 0.022	0.582 ± 0.02	0.574 ± 0.033
100 µM, coculture fibroblast: HHSteC	0.8526 ± 0.0051	0.813 ± 0.012	0.752 ± 0.019	0.674 ± 0.039	0.597 ± 0.036	0.582 ± 0.056	0.538 ± 0.054	0.515 ± 0.053	0.489 ± 0.046
100 µM, coculture fibroblast: HMF	0.84 ± 0.013	0.762 ± 0.012	0.738 ± 0.015	0.71 ± 0.014	0.6774 ± 0.0034	0.6503 ± 0.0022	0.6501 ± 0.0037	0.6486 ± 0.0064	0.6399 ± 0.0063
100 µM, coculture fibroblast: HPFa	0.87 ± 0.016	0.827 ± 0.023	0.768 ± 0.032	0.69 ± 0.048	0.647 ± 0.069	0.632 ± 0.067	0.582 ± 0.059	0.566 ± 0.059	0.539 ± 0.062
100 µM, coculture fibroblast: HUF	0.775 ± 0.014	0.686 ± 0.011	0.7138 ± 0.0054	0.599 ± 0.014	0.565 ± 0.0063	0.5712 ± 0.0024	0.5352 ± 0.0023	0.559 ± 0.0087	0.549 ± 0.018
100 µM, coculture fibroblast: Hs5	0.8447 ± 0.0048	0.783 ± 0.0094	0.759 ± 0.014	0.721 ± 0.013	0.6788 ± 0.0025	0.6331 ± 0.0054	0.624 ± 0.019	0.6 ± 0.024	0.579 ± 0.02
100 µM, coculture fibroblast: Hs27A	0.853 ± 0.012	0.814 ± 0.017	0.7861 ± 0.0052	0.735 ± 0.015	0.696 ± 0.021	0.695 ± 0.04	0.663 ± 0.058	0.655 ± 0.063	0.611 ± 0.048
100 µM, coculture fibroblast: Hs343T	0.856 ± 0.034	0.78 ± 0.049	0.743 ± 0.048	0.723 ± 0.056	0.667 ± 0.053	0.627 ± 0.05	0.595 ± 0.047	0.588 ± 0.051	0.567 ± 0.049
100 µM, coculture fibroblast: WS1	0.6773 ± 0.0067	0.617 ± 0.012	0.648 ± 0.001	0.578 ± 0.002	0.56 ± 0.0086	0.577 ± 0.0065	0.565 ± 0.02	0.596 ± 0.034	0.594 ± 0.042
